The whole screen tested about 52,000 sequences, of which about 210 (0.4%) were called active.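 The calls were made as follows: active = gene whose silencing raises cell survival under the drug, median off-target-corrected z-score across its silencing RNAs 2 or more; inactive = the rest.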 The list shows a part of the results.

This experiment can be described thus: Resistance to Poly (ADP-Ribose) Polymerase inhibitor: Gene Identification via Genome-wide siRNA Screen. As to conditions: mouse BRCA2 R2336H ES cells, olaparib, CellTiter-Glo viability; active compounds read high. The procedure, abridged: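 Genome-wide siRNA screen (3 siRNAs/gene, 20 nM) in mouse ES cells carrying hypomorphic BRCA2 R2336H; olaparib 500 nM added 48 h post-transfection, CellTiter-Glo viability 72 h later. Normalized to plate-median negative control; MAD z-scores, gene median, seed-adjusted.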
In general terms: In ATP-based viability assays light output follows the ATP content of the culture.
In the case of GGCAAAUGGGUUUUCUGCATT against Jam2, the z-score was inactive: -0.881.

Consider GGAAAGUGCCAUGAAGACCTT against Dbi, for which the z-score was inactive: -0.00985.

On to GGUACGCCCUCAUAUGUCATT against Lnp, for which the z-score is inactive: -1.1.

With GGUAAUGGGACUUGGUAGGTT against Olfr1338, the z-score is inactive: -0.676.

As for CGUAGAAAUCCCUCAUUUCTT against Olfr857, the z-score was inactive: 0.227.

On to GGAAAUAUCCAAGAAUCCCTT against Bbs4, for which the z-score was inactive: 0.274.

GGCUGUAUUCAUGACAACCTT against Caskin1: the z-score was inactive: 1.43.

On to GGACAUCACGAGCAUUUCATT against Faim2, for which the z-score is inactive: -1.79.

In the case of “CGAACAAGCCAUGUUUACATT against 9130002C22Rik”, the z-score is inactive: 1.94.

Take GGUUAAAUGUCGUUUAUACTT against Rasa3: the z-score is inactive: 1.21.

GCGUGGAUUACAUUUCUCUTT against Depdc1a: the z-score is inactive: 0.337.

Take GGAGAAACAAAACUUCUGGTT against Arcp: the z-score was inactive: 1.46.

As to GGUCCAGUUGGAGAUGACATT against Ube2d3, the z-score is inactive: -2.84.

With GCCUCCUGUCAAAGGUUCATT against Clm6, the z-score was inactive: 0.143.

For “GGAGGGUGAAGAGAAUGGUTT against 1300003K24Rik”, the z-score is inactive: -0.791.

CCUAAGCCCUCUAAGGCAATT against Pik3r2: the z-score is inactive: 3.1.

As for “GGGAUUCAGACAUGUGCUGTT against 4930503E14Rik”, the z-score was inactive: 1.63.

For CCAGACACAUAGGACAAAATT against Slco3a1, the z-score was inactive: -0.0388.

Turning to CCAGAUGUGAAACAUGACATT against Upk3a, the z-score was inactive: 0.877.

For the sequence CGAGCGAUUCCCAUACAAUTT against BC034834, the z-score is inactive: 0.438.

In the case of GCACAUUUUACCCAAGGCCTT against Gpr23, the z-score was inactive: 0.588.

GGCCAGAACUGUUCCAAUUTT against Cilp: the z-score is inactive: 0.954.

Take “GGAUCUCUUAGGUAUCUUATT against 4921520L01Rik”: the z-score is inactive: -0.486.

On to GCGACUGUUCGGUGGUACATT against MNCb-4137, for which the z-score was inactive: 1.45.

On to CCCACUCUUUGUGUACUGATT against Olfr262, for which the z-score is inactive: 0.561.

In the case of CCUAGCUACAGAACUGUGCTT against Snapap, the z-score is inactive: 0.369.

For the sequence GGGAAAGGAAAGAAGAAGATT against Srp19, the z-score was inactive: -1.1.

Consider GGAUUACAACAACUAUGGCTT against Pla2g1b, for which the z-score is inactive: -0.124.

GGGAAAAAGAUGCAAGUAUTT against Catnbip1: the z-score was inactive: -0.191.

For GGGUUUAUUACAAUCAAACTT against Liph, the z-score was inactive: -0.757.

With GGGCUGAUCUGGAUCAAUATT against Irf1, the z-score is inactive: -0.392.

For the sequence CGAUCCAAUCAAAACUAGUTT against Ddx41, the z-score is inactive: -0.578.

On to GAAAAAUCAUGAAGCCAUATT against Olfr203, for which the z-score is inactive: 0.192.

On to “GCGGCUAACUGAAUACAUGTT against G430090F17Rik”, for which the z-score is inactive: -1.49.

In the case of “GGAUGACCUUUCAUUCAAATT against 5830418K08Rik”, the z-score was inactive: 1.75.

With GGAGGUUAAAUUUUUCAGATT against MGC36320, the z-score was inactive: 0.912.

Consider GGCUUUAUAUGAAACUCCUTT against Acrv1, for which the z-score is inactive: -0.274.

As for “GGACUGAACCCAAAUGCCUTT against 5830457O10Rik”, the z-score is inactive: -0.00905.

With GGAACAGAUAACAUUAUGGTT against Cpeb3, the z-score was inactive: 0.00638.

On to CGCAAGAGAGUGGAUUUCUTT against Cpb1, for which the z-score was inactive: 0.938.

For the sequence “CCAACGGCAUAAAUCCUGATT against 1810044A24Rik”, the z-score was inactive: -1.19.

On to GCGUACGUGAUCUCAGUCUTT against Ttll1, for which the z-score is inactive: -1.33.

Take GGUGCUCAAUAAAUGUAAATT against Cd151: the z-score is inactive: -0.471.

As to GCCGUACAGUAAGCACUACTT against Smyd2, the z-score was inactive: 0.135.

As to GGGCUUUGCUGUCUAUGCATT against Dmwd, the z-score was inactive: 0.54.

On to GCCACAUUCUUCUCAACCUTT against Tas2r106, for which the z-score is inactive: -0.641.

As for GGAAACUGGACCAGACUAUTT against Smarcd1, the z-score is inactive: -1.5.

With GGGUUGCCACAUGUUAUAUTT against Smad2, the z-score was inactive: -0.868.

Consider GGAAAAGUGUACGUGAUCATT against Prkce, for which the z-score is inactive: 1.08.

For the sequence “GCAUGAUCCUUCAUAACAUTT against 4930511I11Rik”, the z-score is inactive: 0.746.

Regarding CCUGUCGACGGAAUUUUAGTT against Zfp287, the z-score was inactive: 1.15.

With GGAUGAAGACAUGCUCACATT against Pcdhb6, the z-score was inactive: -1.53.

For the sequence GGGAAUGAAAUGUUCUUCGTT against Ttl, the z-score is inactive: 0.518.

Regarding “GCUGUGUGGACAAAGUCUGTT against 1810046I24Rik”, the z-score is inactive: -0.949.

As for GGCUCUCAAGAAGAGCAAGTT against BC018462, the z-score is inactive: 1.47.

In the case of GGACAAGAUGCGAAAAGCATT against Tbrg4, the z-score was inactive: -1.42.

In the case of GCCCACCAUUCAGAUAGAGTT against Tacstd2, the z-score was inactive: 1.21.

Regarding CCUUUGACUUCACUAUUGATT against Map4k2, the z-score was inactive: -0.0815.

Consider GCUAUGUGUUGAUUUAAAGTT against Pdk1, for which the z-score was inactive: 0.531.

On to GCUCGUCUAUGCUAUUUCUTT against Fath, for which the z-score is active: 0.81.

On to CAAAUCAAGAGCCUCUAUGTT against Acsl5, for which the z-score was inactive: 0.447.

Turning to GGAUGUUCCAUAUGUGCUGTT against Cdgap, the z-score was inactive: 0.145.

Turning to CCUUAUAGCAUAAGCUUUATT against Olfr768, the z-score is inactive: -0.137.

Consider GCAUAUGCGAACAGUAAAATT against Rab28, for which the z-score is inactive: -0.344.

On to GCCAUUUCCUUCAGUAGUATT against Olfr1355, for which the z-score was inactive: -1.07.

GGAGUUUGAACGUGAGCGGTT against Ndufb7: the z-score is inactive: -0.412.

For the sequence UUUACCUUGUCACCGUCUUTT against Olfr1029, the z-score was inactive: 0.526.

Consider “GGUACUAACACCACAAAAATT against 4921537D05Rik”, for which the z-score was inactive: -0.305.

For CGCGGUAUUCUCCUUGAAGTT against Ccr4, the z-score was inactive: -0.196.

As for GGCUAUUGACUUCAUAGACTT against Dusp1, the z-score is inactive: -0.36.

With GUCAUUUUGCUAGUGGUGATT against Olfr142, the z-score is inactive: -0.0843.

Take “GCAGUUGCGUUCUAUUGAATT against D19Ertd678e”: the z-score was inactive: -2.43.

Consider GGUGGAGAGGGACAACUUUTT against Gfap, for which the z-score is inactive: 0.528.

For the sequence GGAGUCCAAAGAGAAGUUCTT against Pwwp1, the z-score is inactive: 0.692.

On to GCAUGGAGAGACAGUUAACTT against Ccdc2, for which the z-score is inactive: -1.11.

As for “CCUAUAAAUGUCCUUAGUCTT against 2310061I09Rik”, the z-score was inactive: -1.32.

GAUGCUGUAGUCUUGUGAGTT against Sprrl2: the z-score was inactive: 0.0435.

In the case of GCAAUAGCAAAACGACUAATT against Nrk, the z-score was inactive: 0.765.

Take GGUCAAUUGUCCAUAUGACTT against Tnrc9: the z-score was inactive: 0.795.

Turning to CCCUUAUGAACCCAUAAAGTT against Oasl1, the z-score was inactive: 0.473.

As for GGAAUCUAGGAUUCCACAGTT against Tbxa2r, the z-score was inactive: -2.23.

Turning to GCGUGUGACUUACAAGGAATT against Mapk12, the z-score is inactive: 0.0729.

Turning to GCAUUUAUAAUUGCUGAACTT against Cbx1, the z-score is inactive: 0.43.

For GGUUCCUCUCCUCCUGAUATT against Olfr1444, the z-score is inactive: -1.96.

As for “GGAUUCGAGUGGUAACAAGTT against 1110025F24Rik”, the z-score was inactive: -1.78.

GGAUGAUCACAUCGAUUGGTT against Vps41: the z-score is inactive: -0.73.

As to “CCCAUCUUUUAGAAAAUGGTT against A730024A03Rik”, the z-score is inactive: -0.428.

As to GCAGUAGUAACUGCUUGAGTT against Saa2, the z-score is inactive: -1.73.

As for “GGAAGACAACAAAAGGAUGTT against 1700012M14Rik”, the z-score was inactive: -0.511.

For the sequence GCCUUGCUGCCAGAACCUATT against Sumf2, the z-score is inactive: -0.824.

For “GCAUUAAAAACCCUUUUUGTT against B230354K17Rik”, the z-score is inactive: 1.27.

Consider GCAUAAGUCCCUCUUAGUGTT against Slc6a7, for which the z-score is inactive: 0.628.

Regarding “GGAAGAAGUCAGAUGUGGATT against D930005D10Rik”, the z-score was inactive: -0.0931.

CGAACAGUCUGUAUGGCGATT against Jak1: the z-score is active: 3.46.

For the sequence GCCCAUCAGUGAGGUGCUATT against Adh7, the z-score is inactive: 3.33.

On to GCAAAGACAAUCUUUAAGGTT against Pde4d, for which the z-score was inactive: -0.175.

Regarding “GGUGUUCAAACUGAUUGGATT against 4930432B04Rik”, the z-score was inactive: 0.962.

For “GGAGGAAGAGAUGAUUUUATT against A930039G15Rik”, the z-score is inactive: 1.04.

Consider GCUGCCUACACCUUUUACGTT against Abhd8, for which the z-score was inactive: 2.32.

Take GCUAUUGGACAGCUUCUACTT against Olfr1313: the z-score is inactive: -0.601.

Consider AUCUCUCGGUGGUGGACUGTT against Olfr1474, for which the z-score is inactive: 0.562.

Consider GGGACUGAAUUUAGUUUCATT against Prx, for which the z-score was inactive: -0.398.

In the case of GGAUGAGUUAAGUUUCUCATT against Sh3d19, the z-score was inactive: 2.39.

As to “CCUGCUACCUUAACUCUAATT against C630002M10Rik”, the z-score was inactive: -1.72.

Values taken from PubChem BioAssay AID1347423 (Functional Genomics Laboratory (NCATS/FGL), 2020).
